Data as given in patent EP0408760B1, “NEW HYDROXYLAMINE DERIVATIVE” (FUJISAWA PHARMACEUTICAL CO., LTD., priority 1988, dated 1990).
For at least one compound, name, drawing or mass did not settle the structure.

Tested on: SRS-A (Slow Reacting Substance of Anaphylaxis) synthesis in rat polymorpholeukocyte (PMN)
Experiment: Inhibitory activity of SRS-A synthesis in rat PMN using the calcium ionophore A23187 (i-LTC4 by radioimmunoassay)
Format: cell-based
Conditions: rat PMN 1x10⁷ cells, 10 µM A23187, 15 min at 37°C, i-LTC4 readout

Row | Structure (SMILES) | IC₅₀ [x 10⁻⁸ M]
1 | CC(=O)N(O)CC1=Cc2cccc(OCc3ccccc3)c2C1 [Test Compound (d), N-[[7-Benzyloxy-2-(1H-indenyl)]methyl]-N-hydroxyacetamide] | 4.0
2 | CC(=O)N(O)CC1=Cc2cccc(OCc3ccccc3)c2OC1 [Test Compound (c)] | 8.5
